Test results: paper PMC3814934
No constants are given. Whether binding was seen depends on the method and setting. In cells and extracts the contact can be indirect. Binding calls can cover weak binding; strength is not graded here. For part of these data: Tags and fused reporters may be left off the sequences shown.

B1: in vitro-translated full length IRF-4 (protein, UniProt Q15306 1-451)
chain: MNLEGGGRGGEFGMSAVSCGNGKLRQWLIDQIDSGKYPGLVWENEEKSIFRIPWKHAGKQDYNREEDAALFKAWALFKGKFREGIDKPDPPTWKTRLRCALNKSNDFEELVERSQLDISDPYKVYRIVPEGAKKGAKQLTLEDPQMSMSHPYTMTTPYPSLPAQQVHNYMMPPLDRSWRDYVPDQPHPEIPYQCPMTFGPRGHHWQGPACENGCQVTGTFYACAPPESQAPGVPTEPSIRSAEALAFSDCRLHICLYYREILVKELTTSSPEGCRISHGHTYDASNLDQVLFPYPEDNGQRKNIEKLLSHLERGVVLWMAPDGLYAKRLCQSRIYWDGPLALCNDRPNKLERDQTCKLFDTQQFLSELQAFAHHGRSLPRFQVTLCFGEEFPDPQRQRKLITAHVEPLLARQLYYFAQQNSGHFLRGYDLPEHISNPEDYHRSIRHSSIQE
modifications: 35S-radiolabeled
B2: IRF-4 1–135 with FLAG tag, in vitro-translated (domain or fragment, UniProt Q15306 1-135)
chain: MNLEGGGRGGEFGMSAVSCGNGKLRQWLIDQIDSGKYPGLVWENEEKSIFRIPWKHAGKQDYNREEDAALFKAWALFKGKFREGIDKPDPPTWKTRLRCALNKSNDFEELVERSQLDISDPYKVYRIVPEGAKKG
modifications: 35S-radiolabeled

What was measured:
[1] = target: GST-LANA C (945–1162aa) (Kaposi's sarcoma-associated herpesvirus (KSHV, human herpesvirus 8)); assay: pull-down; as a2, in the presence of DNase I (20 U/ml) treatment; only the target purified
[2] = target: GST-LANA C (945–1162aa) (Kaposi's sarcoma-associated herpesvirus (KSHV, human herpesvirus 8)); assay: pull-down; GST-LANA fusion proteins on beads incubated with 35S-labeled in vitro-translated IRF-4 (full length or FLAG-tagged truncations); binding buffer 1x PBS, 0.1% NP-40, 0.5 mM DTT, 10% glycerol, protease inhibitors; overnight at 4°C; autoradiography; only the target purified

Binder	binding [1]	binding [2]
B1	binds	binds
B2		binds
